Paper PMC10005750 (Molecules, 2023)

Tests used:
[1] = Stock solution stability (peak area vs fresh stock solutions); conditions: stock solution in methanol
Description: (§1) Standard stock solutions of DPZ, TAD, and LPZ (IS) were prepared in methanol at a concentration of 100 µg/mL and stored at −20 °C. Working solutions were prepared by diluting the stock solutions with 50% methanol. The concentration of DPZ and TAD ranged from 1 to 200 ng/mL. […] The IS working solution was prepared by diluting the stock solution with 50% methanol to a concentration of 20 ng/mL. All working stock solutions were prepared and stored at −20 °C until use. Calibration standards and QC samples of DPZ and TAD in rat plasma were diluted with the corresponding working solutions and blank rat plasma. Drug-free plasma, that is, control (blank) plasma, stored in a deep freezer, was completely thawed at room temperature before use. Ten percent spiking with working DPZ and TAD stock solutions was performed in blank plasma. The spiked QC samples were stored at −70 °C for stability studies.
(§2) Stability analyses of the stock solutions were performed at room temperature for 3 h and under refrigerated conditions (4 °C) for 14 days. The stability of the plasma analytes was tested for low and high QC under pre-specified conditions: room temperature for 5 h, refrigeration (4 °C) for 14 days, autosampler (10 °C) for 20 h, four cycles of freezing-thawing, and finally frozen conditions (−70 °C) for 28 days for long-term stability.

[2] = Plasma sample stability at low and high QC under storage and handling conditions; conditions: deviations from nominal concentration within ±15%
Description: as §1, §2

[3] = Pharmacokinetic interaction study after oral administration of DPZ and TAD, alone or in combination, in rats; conditions: rat
Description: The rat plasma was stored at −70 °C. The plasma samples were thawed at room temperature and then centrifuged at 1800× g (4 °C) for 8 min before pipetting. Using a micropipette, 30 µL of the plasma sample was transferred into a polypropylene microtube, and 10 µL of IS working solution was added to each sample. Further, 0.2 mL of acetonitrile was then added and vortexed for 1 min. […] The supernatant was transferred to an analytical vessel, and 2 µL of the sample was injected into the LC-MS/MS system.
Rats were divided into three groups (n = 3): group 1, DPZ (3 mg/kg); group 2, TAD (0.3 mg/kg); and group 3, DPZ (3 mg/kg) combined with TAD (0.3 mg/kg). Animals were fasted overnight and allowed free access to water.
The peak plasma concentration, Cmax, and Tmax (the time to reach Cmax) for DPZ and TAD were calculated using individual plasma concentration–time profiles. […] The terminal half-life (T1/2) was calculated as ln 2/λz (λz is the elimination rate constant estimated by using the least-squares linear regression method of the terminal log-linear portion of the plasma concentration–time curve). The apparent clearance (CL/F) was calculated as CL/F = dose/AUC0-∞. The Mann–Whitney U test was used to determine the differences in the mean plasma concentration and PK profiles of DPZ and TAD between the single and combined administration groups. Statistical analysis was performed using SPSS Statistics (version 26.0; IBM SPSS Statistics for Windows, Armonk, NY, USA), and a p-value < 0.05 was considered statistically significant.

[4] = male, Sprague-Dawley, in vivo, po, 3 mg/kg

SMILES: COc1cc2c(cc1OC)C(=O)C(CC1CCN(Cc3ccccc3)CC1)C2 (stereo not drawn) [Donepezil, donepezil]
- Stock solution stability (Mean ± SD, %) ([1]; refrigeration (4 °C, 14 days)): 103.53 ± 1.71%
- Stock solution stability (Mean ± SD, %) ([1]; refrigeration (4 °C, 14 days), listed as DPZ): 103.53%
- Stock solution stability (Mean ± SD, %) ([1]; room temperature (3 h)): 103.43 ± 0.58%
- Stock solution stability (Mean ± SD, %) ([1]; room temperature (3 h), listed as DPZ): 103.43%
- stability in rat plasma under all examined conditions [2]: stable
- AUC(0-inf) [3, 4]: 134 ± 37.9 ng·h/mL
- Cmax [3, 4]: 59.8 ± 15.5 ng/mL
- MRT last [3, 4]: 2.62 ± 0.923 h
- differences in mean plasma concentration and PK parameters between single and combination groups ([3]; oral, DPZ 3 mg/kg and TAD 0.3 mg/kg, Mann–Whitney U test, p > 0.05): statistically insignificant
